Not every detail of the peptide structures is certain; ends, links or a residue may be inferred. Peptide text beside a SMILES is read from it.
Molecular target: Plk1 PBD (Homo sapiens, UniProt P53350)
Assay type: binding
Set-up: host or cells: HEK293T, crude cytosolic lysate
Settings: average ± SEM from five independent experiments

Protein sequences, listed by entry. Tags and fused reporters are not part of them.
UniProt P53350, whole entry: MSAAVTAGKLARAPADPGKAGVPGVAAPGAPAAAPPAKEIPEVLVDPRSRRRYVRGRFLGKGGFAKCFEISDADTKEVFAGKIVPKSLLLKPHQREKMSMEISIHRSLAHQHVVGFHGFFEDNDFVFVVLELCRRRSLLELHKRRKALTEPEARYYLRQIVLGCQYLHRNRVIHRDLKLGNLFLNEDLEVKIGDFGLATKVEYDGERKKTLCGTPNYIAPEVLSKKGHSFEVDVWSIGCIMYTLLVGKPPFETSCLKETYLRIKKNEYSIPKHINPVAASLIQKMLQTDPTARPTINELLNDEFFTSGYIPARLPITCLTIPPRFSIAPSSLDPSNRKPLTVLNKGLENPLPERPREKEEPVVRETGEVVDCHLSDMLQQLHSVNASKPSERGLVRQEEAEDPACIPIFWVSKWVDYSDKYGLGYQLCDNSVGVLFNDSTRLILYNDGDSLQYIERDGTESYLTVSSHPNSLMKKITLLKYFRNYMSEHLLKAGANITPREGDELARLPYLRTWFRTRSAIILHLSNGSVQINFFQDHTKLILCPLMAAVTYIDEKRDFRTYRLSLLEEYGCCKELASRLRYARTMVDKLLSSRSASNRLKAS

In the case of `CCC(CP(=O)(O)O)C(NC(=O)[C@H](CO)NC(=O)[C@H](Cc1cncn1CCCCCCCCc1ccccc1)NC(=O)[C@H](CC(C)C)NC(=O)[C@@H]1CCCN1C(C)=O)C(N)=O` (stereo partly shown) [18b] (HELM PEPTIDE1{[ac].P.L.[O=C([C@H](Cc1cncn1CCCCCCCCc1ccccc1)N[*:1])[*:2]].S.[CCC(CP(=O)(O)O)C(N[*:1])C(=O)[*:2]].[am]}$$$$V2.0; N-terminus and C-terminus assumed), the IC50 is reported as 0.2 ± 0.06 µM.

Reference: US10905769B2, “Peptide and peptide mimetic binding antagonists of polo-like kinase 1 polo box domain and methods of use” (priority 2015, dated 2021)
